This is an account of results in the odorant receptor screen of Mainland et al. (2015).

Among the test systems are OR8U1 clone 1242; OR8U8 clone 1499; OR8U9 clone 1439; OR9A2 clone 1080; OR9A4 clone 1081; OR9G1 clone 1111; OR9G4 N191D clone 1109; OR9G9 clone 1170; OR9I1 clone 1180.
Holding throughout (experiment): odorant receptor activation (CRE luciferase / Renilla) (fold of no-odor wells); higher = more activation
Conditions in all cases: 100 µM

Assay [1] relates to OR8S1 M48V/L82P/R128C/A198T clone 1279.

Where “and” joins values, the source holds several entries; their conditions need not be identical. Identical values can stand only once. This is one part of the list. Each value is one well over the wells without odorant, computed here; the data are noisy.

In the case of `CC1COCc2cc3c(cc21)C(C)(C)C(C)C3(C)C` (configuration not stated) [galaxolide], the odorant receptor activation with OR8U1 clone 1242 was 4.25 and 3.39; in the assay with OR8U8 clone 1499 it was 3.25 and 6.03; in the assay with OR8U9 clone 1439, 3.06; in the assay with OR9A2 clone 1080, 2.46; in the assay on OR9A4 clone 1081, 4.29; in the assay with OR9G1 clone 1111, 2.11. The values for the odorant receptor activation in the assay on OR9G4 N191D clone 1109, with OR9G9 clone 1170 and in the assay with OR9I1 clone 1180 were 2.03, 0.735 and 0.846, respectively.

With `C=C(C)C1CC=CCC1` (configuration not stated) [r-limonene], the odorant receptor activation in assay [1] was 0.924 and 0.329; with OR8U8 clone 1499 it was 0.881 and 0.834 and 0.908; with OR8U9 clone 1439 it was 1.25 and 1.08; with OR9A2 clone 1080, 1.18 and 1.15; in the assay on OR9A4 clone 1081 it was 1.32 and 1.11; in the assay on OR9G1 clone 1111 it was 1.01 and 1.49. Also, the odorant receptor activation in the assay with OR9G4 N191D clone 1109 was 1.28 and 0.872; with OR9G9 clone 1170, 1.17 and 0.537; in the assay on OR9I1 clone 1180, 0.924 and 0.525.

Regarding `CC1=NC(C)SC1C` (configuration not stated), the odorant receptor activation is 0.538 in assay [1]; 0.378 with OR8U1 clone 1242; 1.27 and 1.04 in the assay on OR8U8 clone 1499; 1.09 in the assay on OR8U9 clone 1439; 0.447 in the assay on OR9A2 clone 1080; 1.3 in the assay on OR9A4 clone 1081. The odorant receptor activation in the assay on OR9G1 clone 1111 came to 1.19; in the assay with OR9G4 N191D clone 1109 it was 0.889; in the assay with OR9G9 clone 1170 it was 0.978; with OR9I1 clone 1180, 0.857.

`CCCCCCCCCCC=O` [undecanal]: the odorant receptor activation in [1] stood at 0.949; with OR8U1 clone 1242, 1.13; with OR8U8 clone 1499, 0.911; in the assay with OR8U9 clone 1439, 1.07; with OR9A2 clone 1080, 1.21; in the assay on OR9A4 clone 1081, 1.17. The odorant receptor activation with OR9G1 clone 1111 turned out to be 0.787; in the assay on OR9G4 N191D clone 1109, 1.13; in the assay with OR9G9 clone 1170, 1.1; in the assay on OR9I1 clone 1180 it was 0.908.

With `CCCC(=O)O` [butyric acid], the odorant receptor activation amounted to 0.764 in [1]; 1.23 with OR8U1 clone 1242; 1.05 in the assay on OR8U8 clone 1499; 0.133 in the assay on OR8U9 clone 1439; 1.16 with OR9A2 clone 1080; 0.95 with OR9A4 clone 1081. For the same molecule, the odorant receptor activation in the assay with OR9G1 clone 1111 was 1.15; with OR9G4 N191D clone 1109 it was 1.06; in the assay on OR9G9 clone 1170, 1.11; in the assay with OR9I1 clone 1180 it was 0.934.

As to `C=CC(C)(O)CCC=C(C)C` (configuration not stated) [linalool], the odorant receptor activation is 0.886 in assay [1]; 1.27 in the assay with OR8U1 clone 1242; 1.49 with OR8U8 clone 1499; 1.09 with OR8U9 clone 1439; 1.13 in the assay on OR9A2 clone 1080; 1.25 in the assay with OR9A4 clone 1081. Besides, the odorant receptor activation amounted to 1.05 in the assay with OR9G1 clone 1111, 1.29 with OR9G4 N191D clone 1109, 1.02 in the assay on OR9G9 clone 1170 and 0.996 in the assay with OR9I1 clone 1180.

For the molecule `CC=Cc1ccc(O)c(OC)c1` [isoeugenol], the odorant receptor activation in [1] is 1.07 and 1.41; with OR8U1 clone 1242, 1.4 and 2.08; in the assay on OR8U9 clone 1439, 1.54; with OR9A2 clone 1080, 0.809; with OR9A4 clone 1081, 1.75; with OR9G1 clone 1111, 1.38. In addition, the odorant receptor activation is 0.815 in the assay on OR9G4 N191D clone 1109, 0.848 with OR9G9 clone 1170 and 1.05 in the assay on OR9I1 clone 1180.

On to `CC(=O)C(C)=O` [diacetyl], for which the odorant receptor activation in assay [1] is 1.17; with OR8U1 clone 1242 it was 1.36; with OR8U8 clone 1499, 1.23; in the assay on OR8U9 clone 1439 it was 1.23; in the assay with OR9A2 clone 1080 it was 1.03; in the assay with OR9A4 clone 1081, 1.05. For the same molecule, the odorant receptor activation with OR9G1 clone 1111 was 1.26; in the assay with OR9G4 N191D clone 1109 it was 1; with OR9G9 clone 1170 it was 1.06; in the assay with OR9I1 clone 1180 it was 0.935.

In the case of `CC(C)CCC(=O)O` [4-methylvaleric acid], the odorant receptor activation came out at 0.943 in assay [1]; 1.31 in the assay with OR8U1 clone 1242; 1.12 in the assay on OR8U8 clone 1499; 0.733 in the assay on OR8U9 clone 1439; 4.48 with OR9A2 clone 1080; 2.43 in the assay on OR9A4 clone 1081. For the same molecule, the odorant receptor activation in the assay on OR9G1 clone 1111 stood at 13.7; in the assay on OR9G4 N191D clone 1109, 2.79; in the assay on OR9G9 clone 1170, 0.905; with OR9I1 clone 1180, 1.03.

Regarding `CCCCCCCCC=O` [nonyl aldehyde], the odorant receptor activation in assay [1] was determined as 1.01; in the assay on OR8U1 clone 1242 it was 1.24; in the assay with OR8U8 clone 1499, 0.911; in the assay on OR8U9 clone 1439 it was 1.1; in the assay with OR9A2 clone 1080, 1.32; in the assay on OR9A4 clone 1081 it was 1.01. Also, the odorant receptor activation with OR9G1 clone 1111 was found to be 0.756; in the assay on OR9G4 N191D clone 1109, 1.33; in the assay with OR9G9 clone 1170, 0.928; in the assay on OR9I1 clone 1180, 0.741.

For `CC/C=C\CCO` [cis-3-hexen-1-ol], the odorant receptor activation turned out to be 0.879 in assay [1]; 1.22 with OR8U1 clone 1242; 0.914 with OR8U8 clone 1499; 0.129 in the assay with OR8U9 clone 1439; 0.985 in the assay on OR9A2 clone 1080; 0.875 with OR9A4 clone 1081. The odorant receptor activation with OR9G1 clone 1111 stood at 1.21; in the assay with OR9G4 N191D clone 1109, 0.995; with OR9G9 clone 1170, 0.891; in the assay on OR9I1 clone 1180 it was 0.987.

With `CCCCCCCC=O` [octyl aldehyde], the odorant receptor activation in assay [1] turned out to be 1.15; in the assay with OR8U1 clone 1242 it was 1.36; in the assay on OR8U8 clone 1499, 1.24; in the assay with OR8U9 clone 1439, 0.847; in the assay with OR9A2 clone 1080, 1.31; in the assay on OR9A4 clone 1081 it was 1.31. Further, the odorant receptor activation in the assay on OR9G1 clone 1111 stood at 1; in the assay with OR9G4 N191D clone 1109, 1.49; in the assay with OR9G9 clone 1170, 1.02; with OR9I1 clone 1180 it was 0.775.

Turning to `C=CCc1ccc(OC(C)=O)c(OC)c1` [eugenol acetate], the odorant receptor activation in assay [1] was 1.63; in the assay with OR8U1 clone 1242 it was 1.57; with OR8U8 clone 1499, 1.33; in the assay on OR8U9 clone 1439, 1.71; in the assay on OR9A2 clone 1080, 2.07; in the assay on OR9A4 clone 1081, 1.5. Further, the odorant receptor activation in the assay with OR9G1 clone 1111 worked out at 1.84; with OR9G4 N191D clone 1109, 1.64; in the assay on OR9G9 clone 1170, 2; with OR9I1 clone 1180 it was 1.62.

For `CC1CCC(C(C)C)C(O)C1` (single isomer, unassigned; (-)) [(-)-menthol], the odorant receptor activation turned out to be 0.524 in assay [1]; 0.692 in the assay with OR8U1 clone 1242; 4.18 in the assay on OR8U8 clone 1499; 0.484 in the assay with OR8U9 clone 1439; 9.63 in the assay with OR9A2 clone 1080; 4.05 in the assay with OR9A4 clone 1081. The odorant receptor activation in the assay on OR9G1 clone 1111 amounted to 31.5; in the assay with OR9G4 N191D clone 1109, 5.31; in the assay on OR9G9 clone 1170, 1.27; with OR9I1 clone 1180 it was 1.29.
